# Out of some 330,000 compounds screened, about 7,700 (2.3%) were called active. This list was built around the results that the source calls inconclusive (neither active nor inactive); the mix of calls is not that of the screen. Calls follow the shape of the dose curve; as a rule, active = well fitted inhibition curve with a large enough effect; inconclusive = small, poorly fitted or top-dose-only effect, or effect the other way; inactive = flat fitted curve, though single readings scatter. Where the call is inconclusive, the potency comes from a doubtful curve fit.
# Assay: qHTS screen for small molecules that inhibit ELG1-dependent DNA repair in human embryonic kidney (HEK293T) cells expressing luciferase-tagged ELG1; also: nearly all actives have a fitted effect of over 55% in size
# Conditions: HEK293T ELG1-luciferase reporter, luminescence, 16 h, DNA damage induced by 5-fluorouridine; activity change, negative = inhibition: at 46.1 µM (top of the series)
# Outline: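 Step one: seed 2,000 cells per well. Step two: pin-transfer compound or DMSO alongside 5-fluorouridine. Step three: incubate 16 hr, 37 °C, 5% CO2. Step four: add ONE-Glo, wait 30 min, read luminescence.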
# % is scaled to controls: 0 for no effect and ±100 for the full control effect; potency is read from the fitted curve at half-maximal effect.
SMILES,Potency,"activity change, negative = inhibition"
Clc1ccc(C2=NN(c3ccccc3)C(c3ccco3)C2)cc1 (configuration not stated),"inconclusive: 29.1 µM [inhibitor, partial curve, poor fit]",
Cc1cc(C)cc(C(=O)NCC(=O)OCC(=O)NC2CCCc3ccccc32)c1 (configuration not stated),inactive,
O=C(Nc1cccc(F)c1)NC1(C(=O)NCC2CCCO2)CCCCC1 (configuration not stated),inactive,
CCC(=O)N1CCc2cc(S(=O)(=O)CCC(=O)N3CCN(c4ccccc4)CC3)ccc21,inactive,
CC(=O)c1ccc(NC(=O)CSc2nc3ccccc3c(=O)n2CCCN2CCOCC2)cc1,"inconclusive: 7.3 µM [activator, single point]",
Cc1ccc(NC(=S)N2CCCC2)cc1,"inconclusive: 16.4 µM [activator, partial curve]",
Cn1cnc2c1c(=O)[nH]c(=O)n2Cc1ccccc1,"inconclusive: 29.1 µM [activator, partial curve, poor fit]",
COc1ccc(C2=Nn3c(nnc3-c3cccnc3)SC2)cc1OC,"inconclusive: 2.31 µM [activator, full curve]",
CCn1c(=O)cc(OCC(=O)NCc2ccc(C)o2)c2ccccc21,"inconclusive: 12.6 µM [activator, single point]",
COc1cc(Cl)nn(-c2ccccc2)c1=O,inactive,
Cc1ccccc1S(=O)(=O)Cc1ccc(C(=O)N2CCN(c3ncccn3)CC2)o1,"inconclusive: 29.1 µM [inhibitor, single point]",
O=C(O)c1cnc(-c2ccccc2)nc1C(F)(F)F,inactive,
CN(C)S(=O)(=O)n1cc(/C=C(\NC(=O)c2ccccc2Cl)C(=O)N2CCOCC2)c2ccccc21,"inconclusive: 29.1 µM [activator, single point]",
COc1cccc(CNn2c(-c3cccc(C)c3)nc3ccccc3c2=O)c1O,active: 16.4 µM,
CCCCC(=O)Nc1ccc(NC(=O)c2cc(OC)c(OC)c(OC)c2)cn1,inactive,
COc1ccc(CNC(=S)Nc2ccccc2Cl)cc1,inactive,
Cc1c(Br)c([N+](=O)[O-])nn1CCCC(=O)N1CCN(c2ccccc2)CC1,inactive,
CC(C)Oc1ccc(C(=O)NN2C(=O)NC3(CCCCC3)C2=O)cc1,"inconclusive: 20.6 µM [activator, single point]",
CCN(CC)c1ccc2cc(C(=O)Nc3ccccn3)c(=O)oc2c1,"inconclusive: 1.03 µM [activator, partial curve, poor fit]",
C=Cn1cc[n+](CC(=O)c2ccc(-c3ccccc3)cc2)c1,inactive,
O=C(NCc1n[nH]c(=S)n1-c1ccc(Br)cc1)c1cccs1,inactive,
O=C(NCCN1CCOCC1)c1c(O)nc2sccn2c1=O,inactive,
O=C(Nc1ccc(F)cc1)C(c1ccccc1)N1CCN(CC(=O)N2CCOCC2)CC1 (configuration not stated),"inconclusive: 25.9 µM [activator, single point]",
CCn1cc([N+](=O)[O-])c(C(=O)Nc2ccn(C34CC5CC(CC(C5)C3)C4)n2)n1,inactive,

# No new results follow: entries from further up.
SMILES,Potency,"activity change, negative = inhibition"
O=C(NCc1n[nH]c(=S)n1-c1ccc(Br)cc1)c1cccs1,inactive,
O=C(NCCN1CCOCC1)c1c(O)nc2sccn2c1=O,inactive,
O=C(Nc1ccc(F)cc1)C(c1ccccc1)N1CCN(CC(=O)N2CCOCC2)CC1 (configuration not stated),"inconclusive: 25.9 µM [activator, single point]",
CCn1cc([N+](=O)[O-])c(C(=O)Nc2ccn(C34CC5CC(CC(C5)C3)C4)n2)n1,inactive,

# Two records picked at random from the list so far:
SMILES,Potency,"activity change, negative = inhibition"
COc1ccc(C2=Nn3c(nnc3-c3cccnc3)SC2)cc1OC,"inconclusive: 2.31 µM [activator, full curve]",
O=C(NCCN1CCOCC1)c1c(O)nc2sccn2c1=O,inactive,

# Carrying on.

SMILES,Potency,"activity change, negative = inhibition"
COC(=O)c1sccc1NC(=S)OC,inactive,
COC(=O)C1=C(C)NC(=O)/C1=C\c1cc(C)n(-c2ccccc2F)c1C,"inconclusive: 7.3 µM [inhibitor, partial curve]",
COc1cccc(C(=O)Nc2ccccc2F)c1,"inconclusive: 16.4 µM [activator, partial curve]",
COc1ccc(-c2nc(C)ncc2-c2ccccc2)c(O)c1,"inconclusive: 29.1 µM [inhibitor, single point]",
C/C=C/c1ccc(OCC(=O)O)c(OC)c1,inactive,
Cc1oc(-c2ccccc2F)nc1CN1CCC(C(=O)NCc2cccnc2)CC1,inactive,
O=C(N/N=C/c1c[nH]c2ccccc12)c1ccn(Cc2ccc(Cl)cc2Cl)n1,inactive,
CCCCN(C)C(=O)CCC(=O)Nc1ccc2nc(N3CCOCC3)cc(C)c2c1,"inconclusive: 11.6 µM [activator, single point]",
CSc1ccc(S(=O)(=O)NCCSc2ccccn2)cc1,inactive,
CCC(=O)N1N=C(c2ccc(NS(=O)(=O)c3ccccc3)cc2)CC1c1ccco1 (configuration not stated),"inconclusive: 23.1 µM [inhibitor, single point]",
O=C(O)c1cccc(-c2ccc(/C=N/NC(=O)c3cccnc3)o2)c1,inactive,
CC(=O)Nc1ccc(NC(=O)C2CCN(c3ccc(C(F)(F)F)cn3)CC2)cc1,"inconclusive: 1.64 µM [inhibitor, partial curve, poor fit]",
O=C1CC(C(=O)N(CC2CCCO2)C(C(=O)NC2CCCCC2)c2ccncc2)CS1 (configuration not stated),inactive,
CC(=O)NC(C)CCc1ccccc1 (configuration not stated),"inconclusive: 16.4 µM [activator, partial curve, poor fit]",
CCOC(=O)N1CCN(C(=O)c2ccc3c(=O)n(-c4ccccc4F)c(=S)[nH]c3c2)CC1,"inconclusive: 18.3 µM [inhibitor, single point]",
COc1ccc(CCNc2nc(-c3cccnc3)nc3ccccc23)cc1OC,active: 2.59 µM,
O=C(/C=C/c1cccc([N+](=O)[O-])c1)Nc1cccc(NC(=O)c2ccco2)c1,active: 20.6 µM,
CCn1c(=NC(=O)C2COc3ccccc3O2)sc2c(C)ccc(OC)c21 (configuration not stated),"inconclusive: 23.1 µM [inhibitor, single point]",
COc1ccccc1S(=O)Cc1ccc(C(=O)NCCc2ccc(Cl)cc2)o1 (configuration not stated),"inconclusive: 20.6 µM [inhibitor, single point]",
CCC(=O)Nc1nnc(-c2ccc(Cl)s2)o1,"inconclusive: 18.3 µM [activator, single point]",
COCCCN(C(=S)Nc1cc(Cl)cc(Cl)c1)C(C)c1ccccn1 (configuration not stated),"inconclusive: 29.1 µM [inhibitor, single point]",
C/C(=C\c1ccccc1)C(=O)NC1CCSC1=O (configuration not stated),"inconclusive: 11.6 µM [activator, single point]",
Cc1c(Cl)cccc1NC(=O)CN1CCC(NC(=O)C2CCCCC2)CC1,"inconclusive: 9.2 µM [inhibitor, partial curve]",
N#C/C(=N\Nc1ccc(Cl)cc1)C(=N)N1CCCCC1,,inconclusive: 121% [activator]

SMILES,Potency,"activity change, negative = inhibition"
CCOC(=O)c1c(NC(=O)CN2CCN(C(=O)C3CCCO3)CC2)sc(C)c1C (configuration not stated),"inconclusive: 18.3 µM [inhibitor, single point]",
CCOc1ccc(C(=O)NC(=S)N2CCN(c3ccc(C(F)(F)F)cc3[N+](=O)[O-])CC2)cc1,inactive,
CCN(C(=O)CSc1nc2ccccc2o1)c1c(N)n(Cc2ccccc2)c(=O)[nH]c1=O,"inconclusive: 6.51 µM [inhibitor, partial curve, poor fit]",
COc1ccccc1NC(=O)CSc1c2c(nc3ccccc13)CCC2,inactive,
CCN1C(=O)[C@H]2[C@H]3CN=C(SCc4ccc(C)cc4)N3[C@@](CC)(C(=O)OC)[C@H]2C1=O,inactive,
O=Cc1cn(-c2ccccc2)nc1-c1cc2cc(O)ccc2oc1=O,inactive,
O=C1CC(C(=O)N2CCc3ccccc32)CN1c1cccc(C(F)(F)F)c1 (configuration not stated),inactive,
COc1ccc(C(=O)Nc2ccc3c(c2)OCCO3)cc1Br,"inconclusive: 2.06 µM [activator, full curve]",
Cc1nn(-c2ccccc2)c2sc(C(=O)N(CC(=O)NC(C)(C)C)Cc3ccco3)cc12,"inconclusive: 23.1 µM [inhibitor, single point]",
COC(=O)c1ccc(NC(=O)C(C)N2C(=O)c3ccccc3C2=O)cc1 (configuration not stated),"inconclusive: 23.1 µM [activator, single point]",
CC(C)c1ccc(NC(=O)C2CCCCC2C(=O)O)cc1 (configuration not stated),inactive,
CCOC(=O)CSc1nc2ccccc2c(=O)n1CCC(=O)NCCc1ccc(OC)c(OC)c1,"inconclusive: 25.9 µM [inhibitor, partial curve, poor fit]",
O=C(N/N=C/C=C/c1ccccc1)c1cnccn1,"inconclusive: 25.9 µM [activator, single point]",
O=C(Nc1ccccc1O)c1cccc(NC(=O)c2ccco2)c1,active: 11.6 µM,
CCc1ccc(N2CC(C(=O)Nc3ccc(S(=O)(=O)N4CCCCC4)cc3)CC2=O)cc1 (configuration not stated),"inconclusive: 1.46 µM [inhibitor, partial curve, poor fit]",
COc1cccc(C(=O)Nc2cccc(-c3ccc4nncn4n3)c2)c1OC,"inconclusive: 32.6 µM [inhibitor, single point]",
CC(=O)COc1cc2c(-c3cc4ccccc4o3)cc(=O)oc2cc1C,"inconclusive: 16.4 µM [inhibitor, partial curve]",
O=C(Nn1c(SCc2cccc([N+](=O)[O-])c2)nc2ccccc2c1=O)c1ccccc1,"inconclusive: 1.84 µM [activator, full curve]",
O=C(COC(=O)c1ncc(Cl)c(Cl)c1Cl)NC(=O)c1ccccc1,"inconclusive: 29.1 µM [activator, single point]",
CCOC(=O)Cc1csc(NC(=O)c2sc3nc4ccc(C)cc4cc3c2N)n1,"inconclusive: 29.1 µM [activator, single point]",
Cc1csc(NC(=O)CSc2nc3sc(C)c(C)c3c(=O)[nH]2)n1,"inconclusive: 20.6 µM [activator, partial curve, poor fit]",
O=C(Cn1c2ccccc2c(=O)c2cc([N+](=O)[O-])ccc21)Nc1ccccc1Cl,inactive,
CCCC(C(=O)NC1CCCC1)N(C(=O)c1snc(C(N)=O)c1N)c1ccc(F)cc1 (configuration not stated),inactive,
CN(C)Cc1c(C(=O)N/N=C/c2ccc(OCc3c(F)cccc3Cl)cc2)nnn1-c1nonc1N,"inconclusive: 25.9 µM [activator, single point]",
